In patent US20050079574A1:
Results are given in words; binding and its absence hold for the method and conditions named. Some results given as binding are weak or reduced against the parent protein; the word gives no strength.

Chains of the proteins cited; added tags and fusions are not shown. Residues count along the entry.
UniProt P35968, residues 20-764: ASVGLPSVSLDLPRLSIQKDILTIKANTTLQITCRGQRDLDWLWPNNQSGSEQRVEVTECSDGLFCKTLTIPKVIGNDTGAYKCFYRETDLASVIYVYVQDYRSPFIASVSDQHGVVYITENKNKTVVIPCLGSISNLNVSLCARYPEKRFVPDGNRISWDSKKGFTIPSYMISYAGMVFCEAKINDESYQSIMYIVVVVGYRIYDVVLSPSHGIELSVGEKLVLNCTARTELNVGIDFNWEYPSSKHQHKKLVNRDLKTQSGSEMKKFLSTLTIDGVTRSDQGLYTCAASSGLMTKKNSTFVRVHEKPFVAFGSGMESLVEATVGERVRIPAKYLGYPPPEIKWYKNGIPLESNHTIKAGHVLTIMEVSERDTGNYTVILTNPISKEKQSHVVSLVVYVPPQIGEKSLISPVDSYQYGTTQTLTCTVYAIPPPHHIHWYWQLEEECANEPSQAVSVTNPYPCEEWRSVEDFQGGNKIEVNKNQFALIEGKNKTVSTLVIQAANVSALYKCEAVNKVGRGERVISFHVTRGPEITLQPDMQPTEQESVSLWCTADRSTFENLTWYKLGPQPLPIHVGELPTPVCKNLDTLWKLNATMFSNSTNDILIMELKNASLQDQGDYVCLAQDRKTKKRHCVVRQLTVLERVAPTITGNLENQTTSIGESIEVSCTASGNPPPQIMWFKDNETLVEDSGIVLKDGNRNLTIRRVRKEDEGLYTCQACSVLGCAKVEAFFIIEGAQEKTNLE
UniProt P17948, residues 129-229: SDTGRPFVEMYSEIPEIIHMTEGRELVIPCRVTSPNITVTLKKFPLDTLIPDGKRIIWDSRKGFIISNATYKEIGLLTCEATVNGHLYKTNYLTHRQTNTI

Tests used:
[1] = target: T1, mVEGF (murine Vascular Endothelial Growth Factor) (murine) (UniProt Q00731); assay: competitive phage ELISA on coated murine VEGF; KDR1-7igg titrated against phage clones V1, V2, V4, V5, V6, V7, V8, V9, V10
T1 sequence (looked up): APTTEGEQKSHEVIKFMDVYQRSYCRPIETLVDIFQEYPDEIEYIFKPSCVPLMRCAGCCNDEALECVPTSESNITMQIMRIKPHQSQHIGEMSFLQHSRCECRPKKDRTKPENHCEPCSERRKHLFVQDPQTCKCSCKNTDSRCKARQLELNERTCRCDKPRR

[2] = target: T1, mVEGF (murine Vascular Endothelial Growth Factor) (murine); assay: competitive phage ELISA on coated murine VEGF; Flt1-D2 titrated against phage clones V1, V2, V4, V5, V6, V7, V8, V9, V10; only V2 is displaced

For “KDR1-7-igg (from UniProt P35968 20-764) (Fc fusion)”, which binding [1] is on record?
Its binding is “binds”.

For “Flt-D2 (Domain 2 of Flt-1) (from UniProt P17948 129-229) (receptor)”, which binding [2] is on record?
Its binding is “binds”.
